Data as given in PubChem BioAssay AID1224828 (NIAID, 2016).

Purpose: 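Knock-downs that increase or decrease LPS-induced p65 nuclear translocation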 (primary screen)
System: mouse RAW264.7 G9 macrophage reporter cells (GFP-p65, Tnf promoter-mCherry)
Reagents: siRNA pool against mouse genes, 100 nM
Duration: 2 days siRNA transfection, then 40 min LPS before fixation
Treatment: LPS (Salmonella minnesota R595) at 10 ng/ml
Read-out: 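Imaged p65 nuclear translocation ratio, normalised to the plate median, converted to robust z-scores and averaged across two replicates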
Direction: p65 translocation robust z-score: higher = more nuclear NF-kappaB p65 after LPS than the plate median; nuclear/cytoplasmic p65 ratio: higher = more nuclear NF-kappaB p65
Call rule: 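Called active when z exceeds 3.3 or falls under -1.56 (median of Tlr4 controls), giving activity score of at least 50; no calls for control wells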
Calls: active = hit (p65 shift raised or lowered); inactive = no clear change
Here is an unselected part of about 17,000 reagents. Of all reagents, 762 (4.5%) are marked active. 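Active calls include both raised and lowered p65 entry, mostly lowered; wells with fewer than 50 cells lack a z-score.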 Raw values are not corrected between plates. Unmarked entries are inactive. The numbers tell different reagents against one gene apart. No sequences are given here.

gene | reagent no. | p65 translocation robust z-score | nuclear/cytoplasmic p65 ratio, rep 1 | nuclear/cytoplasmic p65 ratio, rep 2 | low cell count flag
Tmem205 (transmembrane protein 205) | 1 | -1.91 (active) | 1.42 | 1.43 | enough cells to score
Ubxn8 (UBX domain protein 8) | 1 | 0.22 | 1.6 | 1.82 | enough cells to score
Rfx5 (regulatory factor X, 5 (influences HLA class II expression)) | 1 | 1.3 | 1.72 | 1.68 | enough cells to score
Fgf7 (fibroblast growth factor 7) | 1 | 0.18 | 1.44 | 1.42 | enough cells to score
Il1r2 (interleukin 1 receptor, type II) | 1 | -0.42 | 1.38 | 1.36 | enough cells to score
Rcor3 (REST corepressor 3) | 1 | -0.37 | 1.39 | 1.16 | enough cells to score
Pla2g10 (phospholipase A2, group X) | 1 | 1.42 | 1.47 | 1.8 | enough cells to score
Zbtb46 (zinc finger and BTB domain containing 46) | 1 | 0.82 | 1.38 | 1.64 | enough cells to score
Lrig3 (leucine-rich repeats and immunoglobulin-like domains 3) | 1 | -0.69 | 1.33 | 1.45 | enough cells to score
R3hcc1l (R3H domain and coiled-coil containing 1 like) | 1 | 1.3 | 1.69 | 1.8 | enough cells to score
Zfp612 (zinc finger protein 612) | 1 | – | 1.2 | 1.17 | fewer than 50 cells per well; well left out of scoring
Rpl29 (ribosomal protein L29) | 1 | -1.7 (active) | 1.19 | 1.07 | enough cells to score
Pcdhb6 (protocadherin beta 6) | 1 | 0.12 | 1.5 | 1.22 | enough cells to score
Cygb (cytoglobin) | 1 | 0.77 | 1.68 | 1.92 | enough cells to score
Nf1 (neurofibromin 1) | 1 | -1.27 | 1.21 | 1.19 | enough cells to score
Cd9 (CD9 antigen) | 1 | 0.7 | 1.53 | 1.5 | enough cells to score
D630044L22Rik (RIKEN cDNA gene D630044L22 gene) | 1 | -0.7 | 1.31 | 1.43 | enough cells to score
Dync1i2 (dynein cytoplasmic 1 intermediate chain 2) | 1 | -1.71 (active) | 1.24 | 1.16 | enough cells to score
Tmem203 (transmembrane protein 203) | 1 | 1.94 | 1.81 | 2.18 | enough cells to score
Slc16a6 | 1 | 0.28 | 1.51 | 1.29 | enough cells to score
Noc4l (NOC4 like) | 1 | -0.21 | 1.45 | 1.79 | enough cells to score
Dr1 (down-regulator of transcription 1) | 1 | -0.17 | 1.46 | 1.35 | enough cells to score
Ndufb11b (NADH:ubiquinone oxidoreductase subunit B11B) | 1 | -1.56 | 1.09 | 1.32 | enough cells to score
Herc3 (hect domain and RLD 3) | 1 | -0.23 | 1.65 | 1.48 | enough cells to score
Ifna2 (interferon alpha 2) | 1 | 0.31 | 1.47 | 1.42 | enough cells to score
Ccdc66 (coiled-coil domain containing 66) | 1 | 1.03 | 1.62 | 1.48 | enough cells to score
Srsf7 (serine and arginine-rich splicing factor 7) | 1 | 0.19 | 1.52 | 1.64 | enough cells to score
Cpne6 (copine VI) | 1 | -0.32 | 1.57 | 1.68 | enough cells to score
Vmn1r9 (vomeronasal 1 receptor 9) | 1 | -1.18 | 1.19 | 1.13 | enough cells to score
Mall (mal, T cell differentiation protein-like) | 1 | -0.53 | 1.48 | 1.59 | enough cells to score
Stag3 (STAG3 cohesin complex component) | 1 | -0.4 | 1.37 | 1.05 | enough cells to score
Lrfn4 | 1 | 1.32 | 1.92 | 1.74 | enough cells to score
Qrfprl (pyroglutamylated RFamide peptide receptor like) | 1 | – | 1.41 | 1.45 | fewer than 50 cells per well; well left out of scoring
Msn (moesin) | 1 | -2.18 (active) | 1.19 | 1.08 | enough cells to score
Cnnm3 (cyclin M3) | 1 | 0.51 | 1.56 | 1.42 | enough cells to score
Commd8 (COMM domain containing 8) | 1 | 1.4 | 1.85 | 1.94 | enough cells to score
Crnkl1 (crooked neck pre-mRNA splicing factor 1) | 1 | -1.98 (active) | 1.35 | 1.46 | enough cells to score
Arf4 (ARF GTPase 4) | 1 | 0.76 | 1.45 | 2 | enough cells to score
Ggct (gamma-glutamyl cyclotransferase) | 1 | 0.85 | 1.53 | 1.6 | enough cells to score
Ube2n (ubiquitin-conjugating enzyme E2N) | 1 | – | 0.973 | 1.6 | fewer than 50 cells per well; well left out of scoring
Srpx (sushi-repeat-containing protein) | 1 | -0.21 | 1.53 | 1.51 | enough cells to score
Kcnq4 (potassium voltage-gated channel, subfamily Q, member 4) | 1 | -0.21 | 1.39 | 1.4 | enough cells to score
S100g (S100 calcium binding protein G) | 1 | 0.04 | 1.72 | 1.66 | enough cells to score
Pmpca (peptidase (mitochondrial processing) alpha) | 1 | -0.26 | 1.56 | 1.59 | enough cells to score
Or6c8 (olfactory receptor family 6 subfamily C member 8) | 1 | 0.27 | 1.43 | 1.3 | enough cells to score
Or6c8 (olfactory receptor family 6 subfamily C member 8) | 2 | – | 1.41 | 1.18 | fewer than 50 cells per well; well left out of scoring
Slc44a3 | 1 | 1.21 | 1.76 | 2.05 | enough cells to score
Fcamr (Fc receptor, IgA, IgM, high affinity) | 1 | 1.4 | 1.03 | 1.67 | enough cells to score
Cyp4v3 (cytochrome P450, family 4, subfamily v, polypeptide 3) | 1 | 1.48 | 1.76 | 2.06 | enough cells to score
Wfdc12 (WAP four-disulfide core domain 12) | 1 | – | 1.51 | 1.21 | fewer than 50 cells per well; well left out of scoring
Tbc1d22a (TBC1 domain family, member 22a) | 1 | 0.61 | 1.66 | 1.89 | enough cells to score
4930522H14Rik (RIKEN cDNA 4930522H14 gene) | 1 | -0.93 | 1.15 | 1.21 | enough cells to score
Vpreb1a (V-set pre-B cell surrogate light chain 1A) | 1 | -0.99 | 1.38 | 1.36 | enough cells to score
Fndc3b (fibronectin type III domain containing 3B) | 1 | 0.12 | 1.51 | 1.51 | enough cells to score
Ninj1 (ninjurin 1) | 1 | 1 | 1.65 | 1.48 | enough cells to score
Pla2g3 (phospholipase A2, group III) | 1 | 0.5 | 1.78 | 1.6 | enough cells to score
Pus7l (pseudouridylate synthase 7-like) | 1 | – | 1.14 | 1.34 | fewer than 50 cells per well; well left out of scoring
Zfp53 (zinc finger protein 53) | 1 | -0.43 | 1.34 | 1.21 | enough cells to score
Vmn1r49 (vomeronasal 1, receptor 49) | 1 | 1.12 | 1.5 | 1.38 | enough cells to score
